Source: article PMC8178753

Test system: PkKKT2a central domain (551-679) C646A C649A (Perkinsela sp. CCAP 1560/4)
Experiment: fluorescence anisotropy
Settings: fluorescein (6-FAMK) in place of T37 of forward strand, FA: 1 nM FAM-dsDNA, 20 min RT, read at 25°C, recombinant protein, label: internal 6-FAM, letters put together from the description

CAATATGTAAGGTGTTTTGGTGTAAAACACGCATTCTTGCATAACATGCA (double strand) [50 mer CEN FAM (BA1674)]
binding result: binds

The exact form of at least one protein or probe is not confirmed.
